# Source: PubChem BioAssay AID248 (DTP/NCI, 2004)
# The list does not hold the whole screen: it gathers tests that were run many times, whatever their T/C, doses with no T/C, and many T/C values between a quarter and a half above the control. Further doses and runs are listed elsewhere. T/C gives the treated animals as a percentage of the vehicle group. Some entries give survivors of the animals treated and no T/C: the source files T/C as zero there, which appears to mark a toxic dose or a test without result, not a measured value. Some doses without a T/C left all or most animals alive at the check, yet need not have been tolerated: the source hardly ever lists a survival T/C far under the control, and the zero likely stands for such cases as well. Survivors were counted at the toxicity check, usually on the fifth day, unless a day is given; later deaths do not show. Schedule codes are those of the source, taken here to give the interval after Q, in days (D) or hours (H), and the number of doses after X. Some entries hold several experiments; the results are listed from low to high. Some schedule codes hold Z or #, which are not explained here. Where survival is the endpoint, the PubChem record calls one and a half times the control and up active, and a quarter to a half above the control has no call in these data; cut-offs in other NCI protocols can differ. Some T/C values carry the count of animals alive at the toxicity check (mostly the fifth day); where none is given, no animal had died by that day. Marks such as (2×) count equal records among those shown.
# Tested on: L1210 leukemia ip in BDF1 mice, survival T/C
# Assay: NCI In Vivo Anticancer Drug Screen. Data for tumor model L1210 Leukemia (intraperitoneal) in B6D2F1 (BDF1) mice
# Conditions: T/C endpoint: mean survival time, higher T/C = longer survival
# [1] = dose: 160.0 mg/kg/injection, schedule: Q01DX005 (ip), vehicle: other
smiles,measurement,setting,value
S=c1nc[nH]c2nc[nH]c12,T/C,"dose: 60.0 mg/kg/injection, schedule: Q08DX002 (ip), vehicle: saline",126 % of control
same,T/C,"dose: 60.0 mg/kg/injection, schedule: Q#B X015 (ip), vehicle: saline",142 % of control
same,T/C,"dose: 64.0 mg/kg/injection, schedule: Q04DX002 (ip), vehicle: alkali diluted with saline","106, 107, 108, 121 % of control"
same,T/C,"dose: 65.0 mg/kg/injection, schedule: Q01DX009 (ip), vehicle: other",140 % of control
same,T/C,"dose: 67.0 mg/kg/injection, schedule: Q01DX015 (ip), vehicle: other",125 and 146 % of control
same,T/C,"dose: 67.5 mg/kg/injection, schedule: Q12HX006 (ip), vehicle: alkali diluted with saline",137 % of control
same,T/C,"dose: 70.0 mg/kg/injection, schedule: Q01DX001 (ip), vehicle: other","127, 140, 165, 177 % of control"
same,T/C,"dose: 74.0 mg/kg/injection, schedule: Q02DX010 (ip), vehicle: carboxymethylcellulose (CMC)",148 % of control
same,T/C,"dose: 74.25 mg/kg/injection, schedule: Q02DX010 (ip), vehicle: carboxymethylcellulose (CMC)","110, 156, 160, 170, 186 % of control"
same,T/C,"dose: 75.0 mg/kg/injection, schedule: Q01DX015 (ip), vehicle: alkali diluted with saline",145 % of control
same,T/C,"dose: 75.0 mg/kg/injection, schedule: Q02DX010 (ip), vehicle: carboxymethylcellulose (CMC)","144, 151, 153, 161 % of control"
same,T/C,"dose: 75.0 mg/kg/injection, schedule: Q02DX010 (ip), vehicle: other","124, 153, 167, 180 % of control"
same,T/C,"dose: 76.5 mg/kg/injection, schedule: Q02DX010 (ip), vehicle: carboxymethylcellulose (CMC)","119, 120, 146 (2×), 162 % of control"
same,T/C,"dose: 80.0 mg/kg/injection, schedule: Q01DX005 (ip), vehicle: alkali diluted with water","132, 133, 138 % of control"
same,T/C,"dose: 80.0 mg/kg/injection, schedule: Q01DX005 (ip), vehicle: other","118, 122, 131, 142, 145, 147, 155, 156, 159, 162, 165, 167, 170 % of control"
same,T/C,"dose: 80.0 mg/kg/injection, schedule: Q01DX006 (iv), vehicle: other",146 % of control [5 of 6 alive]
same,T/C,"dose: 80.0 mg/kg/injection, schedule: Q01DX009 (oral), vehicle: saline with Tween-80",133 % of control
same,T/C,"dose: 80.0 mg/kg/injection, schedule: Q01DX010 (ip), vehicle: alkali diluted with saline","128, 146, 148, 157 % of control"
same,T/C,"dose: 80.0 mg/kg/injection, schedule: Q01DX Z (im), vehicle: other",126 % of control
same,T/C,"dose: 80.0 mg/kg/injection, schedule: Q01DX Z (oral), vehicle: other",148 % of control
same,T/C,"dose: 80.0 mg/kg/injection, schedule: Q01DX Z (sc), vehicle: other",142 % of control
same,T/C,"dose: 85.6 mg/kg/injection, schedule: Q02DX010 (ip), vehicle: carboxymethylcellulose (CMC)",128 % of control
same,T/C,"dose: 90.0 mg/kg/injection, schedule: Q01DX005 (ip), vehicle: saline, evaluated on day 30",126 and 134 % of control
same,T/C,"dose: 90.0 mg/kg/injection, schedule: Q01DX005 (ip), vehicle: saline, evaluated on day 35",152 % of control
same,T/C,"dose: 90.0 mg/kg/injection, schedule: Q01DX005 (ip), vehicle: saline, evaluated on day 60",129 % of control
same,T/C,"dose: 90.0 mg/kg/injection, schedule: Q01DX009 (ip), vehicle: acetone",132 % of control
same,T/C,"dose: 90.0 mg/kg/injection, schedule: Q01DX009 (ip), vehicle: alkali diluted with saline, evaluated on day 5",151 and 178 % of control
same,T/C,"dose: 90.0 mg/kg/injection, schedule: Q01DX009 (ip), vehicle: alkali diluted with saline, evaluated on day 45",180 and 236 % of control
same,T/C,"dose: 90.0 mg/kg/injection, schedule: Q01DX009 (ip), vehicle: alkali diluted with saline, evaluated on day 60",150 % of control
same,T/C,"dose: 90.0 mg/kg/injection, schedule: Q01DX009 (ip), vehicle: saline",140 % of control
same,T/C,"dose: 90.0 mg/kg/injection, schedule: Q01DX015 (ip), vehicle: alkali diluted with saline, evaluated on day 5","138, 140, 142, 143, 152, 164, 170, 173, 177, 186, 191 % of control"
same,T/C,"dose: 90.0 mg/kg/injection, schedule: Q01DX015 (ip), vehicle: alkali diluted with saline, evaluated on day 35",170 % of control
same,T/C,"dose: 90.0 mg/kg/injection, schedule: Q01DX015 (ip), vehicle: alkali diluted with saline, evaluated on day 45","138, 143, 165, 186, 191 % of control"
same,T/C,"dose: 90.0 mg/kg/injection, schedule: Q01DX015 (ip), vehicle: alkali diluted with saline, evaluated on day 46",149 % of control
same,T/C,"dose: 90.0 mg/kg/injection, schedule: Q01HX006 (ip), vehicle: saline",143 % of control
same,T/C,"dose: 90.0 mg/kg/injection, schedule: Q02DX008 (ip), vehicle: alkali diluted with saline",134 % of control
same,T/C,"dose: 90.0 mg/kg/injection, schedule: Q08DX002 (ip), vehicle: saline",139 % of control
same,T/C,"dose: 96.0 mg/kg/injection, schedule: Q## X032 (ip), vehicle: alkali diluted with saline",140 and 146 % of control
same,T/C,"dose: 100.0 mg/kg/injection, schedule: Q01DX017 (ip), vehicle: other",131 % of control [7 of 8 alive]
same,T/C,"dose: 100.0 mg/kg/injection, schedule: Q01DX Z (ip), vehicle: other",141 % of control
same,T/C,"dose: 100.0 mg/kg/injection, schedule: Q04DX003 (ip), vehicle: saline with Tween-80",148 % of control
same,T/C,"dose: 100.0 mg/kg/injection, schedule: Q12HX012 (ip), vehicle: alkali diluted with saline",148 % of control
same,T/C,"dose: 101.0 mg/kg/injection, schedule: Q01DX015 (ip), vehicle: other",143 % of control
same,T/C,"dose: 108.0 mg/kg/injection, schedule: Q01DX009 (ip), vehicle: other",143 % of control
same,T/C,"dose: 114.0 mg/kg/injection, schedule: Q01DX009 (ip), vehicle: alkali diluted with saline",149 % of control [2 of 2 alive]
same,T/C,"dose: 114.75 mg/kg/injection, schedule: Q02DX010 (ip), vehicle: carboxymethylcellulose (CMC)","98, 105, 115, 121, 127 % of control"
same,T/C,"dose: 120.0 mg/kg/injection, schedule: Q01DX001 (ip), vehicle: saline","133, 134, 145, 147, 150, 155, 157, 168 % of control"
same,T/C,"dose: 120.0 mg/kg/injection, schedule: Q01DX005 (ip), vehicle: alkali diluted with saline",142 % of control
same,T/C,"dose: 120.0 mg/kg/injection, schedule: Q01DX011 (ip), vehicle: alkali diluted with saline, evaluated on day 5",136 % of control
same,T/C,"dose: 120.0 mg/kg/injection, schedule: Q01DX011 (ip), vehicle: alkali diluted with saline, evaluated on day 35",136 % of control
same,survivor count,"dose: 120.0 mg/kg/injection, schedule: Q01DX014 (ip), vehicle: alkali diluted with saline",0 of 6
same,T/C,"dose: 125.0 mg/kg/injection, schedule: Q01DX015 (ip), vehicle: alkali diluted with saline",147 % of control
same,T/C,"dose: 125.0 mg/kg/injection, schedule: Q04DX003 (ip), vehicle: Klucel (hydroxypropylcellulose) (HPC)",148 % of control
same,T/C,"dose: 128.0 mg/kg/injection, schedule: Q04DX002 (ip), vehicle: alkali diluted with saline","125, 127, 131 % of control (2×)"
same,T/C,"dose: 129.2 mg/kg/injection, schedule: Q02DX010 (ip), vehicle: carboxymethylcellulose (CMC)",127 % of control
same,T/C,"dose: 134.0 mg/kg/injection, schedule: Q## X004 (ip), vehicle: alkali diluted with saline",134 % of control
same,T/C,"dose: 135.0 mg/kg/injection, schedule: Q01DX001 (ip), vehicle: alkali diluted with saline",131 and 134 % of control
same,T/C,"dose: 135.0 mg/kg/injection, schedule: Q01DX001 (ip), vehicle: carboxymethylcellulose (CMC)",141 % of control
same,T/C,"dose: 135.0 mg/kg/injection, schedule: Q01DX009 (ip), vehicle: alkali diluted with saline, evaluated on day 5",144 % of control
same,T/C,"dose: 135.0 mg/kg/injection, schedule: Q01DX009 (ip), vehicle: alkali diluted with saline, evaluated on day 45",135 % of control
same,T/C,"dose: 135.0 mg/kg/injection, schedule: Q01DX015 (ip), vehicle: alkali diluted with saline, evaluated on day 5","121, 134 (2×), 142, 148, 151, 156, 163, 164 (2×), 175 % of control"
same,T/C,"dose: 135.0 mg/kg/injection, schedule: Q01DX015 (ip), vehicle: alkali diluted with saline, evaluated on day 35",164 % of control
same,T/C,"dose: 135.0 mg/kg/injection, schedule: Q01DX015 (ip), vehicle: alkali diluted with saline, evaluated on day 45","121, 134, 148, 156, 164 % of control"
same,T/C,"dose: 135.0 mg/kg/injection, schedule: Q02DX008 (ip), vehicle: alkali diluted with saline",143 % of control
same,T/C,"dose: 135.0 mg/kg/injection, schedule: Q## X009 (ip), vehicle: alkali diluted with saline",144 % of control
same,T/C,"dose: 146.0 mg/kg/injection, schedule: Q01DX015 (ip), vehicle: alkali diluted with saline",147 % of control
same,T/C,"dose: 150.0 mg/kg/injection, schedule: Q01DX015 (ip), vehicle: alkali diluted with saline",147 % of control
same,survivor count,"dose: 151.0 mg/kg/injection, schedule: Q01DX015 (ip), vehicle: other",8 of 8
same,survivor count,"dose: 160.0 mg/kg/injection, schedule: Q01DX005 (ip), vehicle: alkali diluted with water",5 of 6 and 6 of 6
same,T/C,[1],"90 [5 of 6 alive], 93, 97, 102, 103 (2×), 108, 108 [4 of 6 alive], 139 [5 of 6 alive], 146 % of control"
same,survivor count,[1],"2 of 6, 5 of 6, 3 of 3"
same,T/C,"dose: 160.0 mg/kg/injection, schedule: Q01DX009 (oral), vehicle: saline with Tween-80",128 and 140 % of control
same,survivor count,"dose: 160.0 mg/kg/injection, schedule: Q01DX Z (ip), vehicle: carboxymethylcellulose (CMC)",6 of 6
